Reference: doi:10.1101/591909

Sequences of proteins named here, by UniProt entry; tags and fusion partners are left off. Residues count along the entry.
UniProt P15209, residues 32-821: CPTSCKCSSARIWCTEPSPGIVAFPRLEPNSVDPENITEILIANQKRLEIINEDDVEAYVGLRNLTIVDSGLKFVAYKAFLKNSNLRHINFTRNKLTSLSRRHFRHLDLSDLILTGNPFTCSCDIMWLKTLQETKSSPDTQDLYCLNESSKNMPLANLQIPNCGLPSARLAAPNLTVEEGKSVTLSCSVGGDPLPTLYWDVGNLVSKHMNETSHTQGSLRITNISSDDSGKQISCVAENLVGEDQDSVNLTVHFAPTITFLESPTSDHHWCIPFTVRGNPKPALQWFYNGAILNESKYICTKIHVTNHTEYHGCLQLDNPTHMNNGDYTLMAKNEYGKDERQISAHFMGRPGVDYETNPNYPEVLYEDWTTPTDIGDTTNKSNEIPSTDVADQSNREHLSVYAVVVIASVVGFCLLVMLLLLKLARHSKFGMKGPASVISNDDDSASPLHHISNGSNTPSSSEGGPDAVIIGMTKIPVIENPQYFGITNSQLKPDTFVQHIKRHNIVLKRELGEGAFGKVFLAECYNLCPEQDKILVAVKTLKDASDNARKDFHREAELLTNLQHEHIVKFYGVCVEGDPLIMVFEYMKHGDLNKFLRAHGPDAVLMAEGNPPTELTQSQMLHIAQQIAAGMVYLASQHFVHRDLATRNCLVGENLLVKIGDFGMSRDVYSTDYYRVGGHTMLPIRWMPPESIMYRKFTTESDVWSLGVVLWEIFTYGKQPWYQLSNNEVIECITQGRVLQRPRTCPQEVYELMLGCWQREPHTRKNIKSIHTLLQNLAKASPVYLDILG
UniProt P17427: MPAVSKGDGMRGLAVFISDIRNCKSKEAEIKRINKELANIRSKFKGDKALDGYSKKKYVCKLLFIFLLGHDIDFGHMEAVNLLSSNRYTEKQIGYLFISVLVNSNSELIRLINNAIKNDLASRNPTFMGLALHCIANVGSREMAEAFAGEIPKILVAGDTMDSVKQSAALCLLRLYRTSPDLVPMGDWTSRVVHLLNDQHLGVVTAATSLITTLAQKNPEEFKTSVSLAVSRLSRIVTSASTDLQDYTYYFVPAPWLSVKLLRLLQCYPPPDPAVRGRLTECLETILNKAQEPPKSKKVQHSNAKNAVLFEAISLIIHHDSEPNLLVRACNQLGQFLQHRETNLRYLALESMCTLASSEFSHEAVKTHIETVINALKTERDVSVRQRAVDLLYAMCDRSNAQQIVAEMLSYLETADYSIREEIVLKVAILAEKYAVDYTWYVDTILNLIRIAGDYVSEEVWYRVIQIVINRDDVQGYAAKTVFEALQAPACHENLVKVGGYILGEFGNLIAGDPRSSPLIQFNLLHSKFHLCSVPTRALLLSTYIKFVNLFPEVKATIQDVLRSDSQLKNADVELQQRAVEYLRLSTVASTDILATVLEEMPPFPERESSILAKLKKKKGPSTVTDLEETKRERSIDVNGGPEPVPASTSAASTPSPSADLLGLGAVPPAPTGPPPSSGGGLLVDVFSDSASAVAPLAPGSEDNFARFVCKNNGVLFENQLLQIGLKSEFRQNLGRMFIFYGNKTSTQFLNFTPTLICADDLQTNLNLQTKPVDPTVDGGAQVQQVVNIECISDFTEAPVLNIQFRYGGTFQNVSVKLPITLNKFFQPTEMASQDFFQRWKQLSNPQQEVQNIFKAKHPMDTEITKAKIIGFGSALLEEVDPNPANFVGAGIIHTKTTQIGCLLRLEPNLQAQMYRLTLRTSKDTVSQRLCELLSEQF

What was measured:
[1] = target: TRKB (tropomyosin-related kinase B), BDNF receptor, endogenous in mouse hippocampus (mouse (endogenous in hippocampus)) (UniProt P15209); test: affinity purification with mass spectrometry
[2] = target: TRKB (tropomyosin-related kinase B), BDNF receptor, endogenous in mouse hippocampus (mouse (endogenous in hippocampus)) (UniProt P15209); test: affinity purification with mass spectrometry; remark: listed apart in the source

In the case of “AP-2 complex subunit alpha-2 (from UniProt P17427 1-938)”, the binding [1] is reported as “binds”.

B1: AP3D1 (subunit of the AP-3 complex) (protein, UniProt O54774 1-1199)
chain: MALKMVKGSIDRMFDKNLQDLVRGIRNHKEDEAKYISQCIDEIKQELKQDNIAVKANAVCKLTYLQMLGYDISWAAFNIIEVMSASKFTFKRVGYLAASQCFHEGTDVIMLTTNQIRKDLSSPSQYDTGVALTGLSCFVTPDLARDLANDIMTLMSHTKPYIRKKAVLIMYKVFLKYPESLRPAFPRLKEKLEDPDPGVQSAAVNVICELARRNPKNYLSLAPLFFKLMTSSTNNWVLIKIIKLFGALTPLEPRLGKKLIEPLTNLIHSTSAMSLLYECVNTVIAVLISLSSGMPNHSASIQLCVQKLRILIEDSDQNLKYLGLLAMSKILKTHPKSVQSHKDLILQCLDDKDESIRLRALDLLYGMVSKKNLMEIVKKLMTHVDKAEGTTYRDELLTKIIDICSQSNYQHITNFEWYISILVELTRLEGTRHGHLIAAQMLDVAIRVKAIRKFAVSQMSSLLDSAHLVASSTQRNGICEVLYAAAWICGEFSEHLQGPQQTLEAMLRPKVTTLPGHIQAVYVQNVVKLYASILQQKEQAADTEAAQEVTQLLVERLPQFVQSADLEVQERASCILQLVKHVQKLQAKGVPVAEEVSALFAGELNPVAPKAQKKVPVPEGLDLDAWINEPPSDSESEDEKPKAIFHEEEPRHTRRRQPEEDEEELARRREARKQEQANNPFYIKSSPSPQKRYQDAPGVEHIPVVQIDLSVPLKVPGMPMSDQYVKLEEQRRHRQRLEKDKKRKKKEKGKRRHSSLPTESDEDIAPAQRVDIITEEMPENALPSDEDDKDPNDPYRALDIDLDKPLADSEKLPVQKHRNAEAVKSPEKEGVLGVEKKSKKPKKKEKKTKEREREKKDKKGEDLDFWLSTTPPPAAAPIPAPSTEELAASTITSPKDECEVLKGEEEDHVDHDQERKSSRHKKKKHRKEKEKEERPRDKKKAKKKQVAPLENGAAAEEEEEPIPPMSSYCLLAESPYIKVTYDIQASLQKDSQVTVSIILENQSSSFLKNMELNVLDSLNTKMTRPEGSSVHDGVPVPFQLPPGVSNEAQFVFTIQSIVMAQKLKGTLSFIAKDDEGATHEKLDFRLHFSCSSYLITTPCYSDAFAKLLESGDLSMNSIKVDGISMSFQNLLAKICFYHHFSVVERVDSCASMYSRSIQGHHVCLLVKKGESSVSVDGKCSDATLLSSLLEEMKTTLAQC
B1 was tested, and the binding [2] was “binds”.

Read-outs that look alike come from different tables or passages of the source. No constants are given. Whether binding was seen depends on the method and setting. In cells and extracts the contact can be indirect. A yes stands for co-enrichment or nearness to the bait. Other partners may have been found.
